Experimental data: PubChem BioAssay AID686938 (Drosophila RNAi Screening Center, 2013)
The screen tested about 23,000 reagents; this is a random part of those that have a named target and a result. Of all reagents, 75 (0.33%) were called active. 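Raw plate signals without normalisation; calls rest on plate z-scores that were not deposited; ratio present for only 364 wells.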 A number with no mark means an inactive call. Reagents against one gene are numbered here. Names joined by + are all predicted targets of the reagent. Reagent sequences are not shown. The record does not give: the dose of the treatment.

Screen: 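Looking for CRAC channel components and the factors controlling them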 (primary screen)
Cell system: Drosophila S2R+ cells
Knock-down reagent: long dsRNA against Drosophila genes, about 0.25 µg dsRNA per well, roughly 10,000 cells
Time to read-out: 5 days of knock-down before the calcium assay
Challenge: thapsigargin (SERCA pump blocker) to empty calcium stores; entry signal taken 4 min after adding it
Measurement: 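Duplicate raw fluo-4 intensities per well from a plate reader, at rest and four minutes after thapsigargin emptied calcium stores; entry-to-rest ratio filled for only some wells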
Scale: calcium entry signal: higher = stronger calcium signal after store depletion; entry to resting ratio: higher = more calcium entry relative to resting level; resting calcium signal: higher = higher resting calcium signal
Call rule: 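Hit if the duplicate-averaged plate z-score for entry over resting signal is under −3; wells with weak total dye signal (Fmax z < −2) or more than 5 off-targets removed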
Meaning of the calls: active = strongly reduced calcium entry; inactive = no strong reduction

The first 6 entries, ahead of the listing:
target	reagent	calcium entry signal, replicate 1 (fluorescence units)	calcium entry signal, replicate 2 (fluorescence units)	entry to resting ratio	resting calcium signal, replicate 1 (fluorescence units)	resting calcium signal, replicate 2 (fluorescence units)
Cpr64Aa (GeneID 38508)	1	3.25e7	2.95e7		1.72e7	1.52e7
jing (GeneID 35555)	1	4.89e7	3.89e7		2.48e7	1.88e7
jing (GeneID 35555)	2	3.28e7	5.92e7		1.74e7	2.47e7
jing (GeneID 35555)	3	3.63e7			1.67e7	
Acp33A + CG15841 (retired record)	1	3.93e7	4.58e7		1.80e7	1.90e7
mei-38 (GeneID 31104)	1	3.99e7	4.63e7	1.8	2.21e7	2.14e7

Main list, from the first entry:
target	reagent	calcium entry signal, replicate 1 (fluorescence units)	calcium entry signal, replicate 2 (fluorescence units)	entry to resting ratio	resting calcium signal, replicate 1 (fluorescence units)	resting calcium signal, replicate 2 (fluorescence units)
Cpr64Aa (GeneID 38508)	1	3.25e7	2.95e7		1.72e7	1.52e7
jing (GeneID 35555)	1	4.89e7	3.89e7		2.48e7	1.88e7
jing (GeneID 35555)	2	3.28e7	5.92e7		1.74e7	2.47e7
jing (GeneID 35555)	3	3.63e7			1.67e7	
Acp33A + CG15841 (retired record)	1	3.93e7	4.58e7		1.80e7	1.90e7
mei-38 (GeneID 31104)	1	3.99e7	4.63e7	1.8	2.21e7	2.14e7
CG14153 (GeneID 39208)	1	2.24e7	3.15e7		1.24e7	1.37e7
CG14153 (GeneID 39208)	2	2.62e7	2.99e7		1.54e7	1.40e7
CG3544 (GeneID 33252)	1	3.83e7			2.19e7	
su(f) (GeneID 3354994)	1	2.48e7	3.14e7		1.55e7	1.57e7
qua (GeneID 35058)	1	5.27e7	3.51e7		2.32e7	1.59e7
CG31198 (GeneID 318622)	1	2.71e7	2.44e7		1.35e7	1.21e7
Osi7 (GeneID 40761)	1	3.94e7	3.49e7		1.72e7	1.65e7
cmet (GeneID 53561)	1	3.20e7	4.52e7		1.74e7	1.87e7
CG4025 (GeneID 31177)	1	4.62e7	6.25e7	2	2.27e7	2.50e7
CG8323 (GeneID 36566)	1	3.90e7	3.50e7		1.96e7	1.59e7
CG1304 (GeneID 33074)	1	3.90e7	4.57e7		2.08e7	1.99e7
Hip14 (GeneID 39747)	1	2.85e7	3.91e7		1.45e7	2.82e7
eEF1beta (GeneID 45249)	1	3.82e7	3.72e7		1.69e7	1.79e7
ocn (GeneID 43567)	1	4.29e7	5.05e7		2.07e7	2.29e7
grsm (GeneID 41587)	1	2.29e7	4.48e7		1.17e7	7.10e7
grsm (GeneID 41587)	2	1.80e7	3.90e7		9.60e6	5.57e7
twf (GeneID 41719)	1	2.92e7	3.00e7		1.40e7	1.45e7
Mal-A4 (GeneID 35827)	1	3.92e7	4.10e7		1.88e7	1.89e7
CG13131 (GeneID 34334)	1	3.33e7	4.22e7		1.31e7	1.83e7
CG13131 (GeneID 34334)	2	3.44e7	3.11e7		2.01e7	1.68e7
cv-d (GeneID 41921)	1	2.12e7	2.10e7		1.11e7	1.00e7
cv-d (GeneID 41921)	2	2.84e7	4.82e7		1.44e7	5.59e7
cv-d (GeneID 41921)	3	3.69e7	5.15e7		1.74e7	6.40e7
CG10469 (GeneID 38696)	1	2.34e7	5.12e7		1.23e7	2.17e7
CG6959 (GeneID 41434)	1	4.24e7	3.77e7		1.92e7	1.94e7
CG15422 (GeneID 33615)	1	3.49e7	4.09e7		1.85e7	1.87e7
Loxl2 (GeneID 37485)	1	3.44e7			1.68e7	
CG11413 + CG4622	1	4.22e7	4.92e7		2.07e7	2.07e7
Scsalpha1 (GeneID 38447)	1	4.51e7	3.56e7		3.18e7	1.36e7
teq (GeneID 39048)	1	3.59e7	4.23e7		1.72e7	1.83e7
teq (GeneID 39048)	2	3.16e7	3.44e7		1.67e7	1.63e7
teq (GeneID 39048)	3	3.08e7	4.27e7		1.47e7	1.84e7
Obp83g (GeneID 170878)	1	5.21e7	3.74e7		2.48e7	1.80e7
Fpgs1 (GeneID 32212)	1	2.62e7	3.42e7		1.39e7	1.79e7
aay (GeneID 39085)	1	5.54e7	4.66e7		3.83e7	1.81e7
His2Av (GeneID 43229)	1	4.01e7	5.08e7		2.10e7	2.58e7
ClpX (GeneID 42369)	1	3.03e7	2.99e7		1.35e7	1.14e7
CG13088 (GeneID 34180)	1	4.50e7	6.13e7		2.21e7	2.54e7
Ctr1A (GeneID 31601)	1	3.61e7	3.30e7		1.87e7	1.75e7
CG9988 (GeneID 43388)	1	4.14e7	5.95e7		2.19e7	2.66e7
RluA-1 (GeneID 34438)	1	2.43e7	4.55e7		1.40e7	1.81e7
RluA-1 (GeneID 34438)	2	4.64e7	5.30e7		2.30e7	2.29e7
nclb (GeneID 36150)	1	3.88e7	3.36e7		1.82e7	1.66e7
Pif1A + Pif1B	1	5.20e7	4.37e7		2.43e7	2.01e7
Pif1A + Pif1B	2	3.27e7	3.69e7		1.45e7	1.60e7
Pif1A + Pif1B	3	5.16e7	4.36e7		2.72e7	2.04e7
CG31437 (GeneID 318735)	1	2.80e7	4.95e7		1.34e7	2.51e7
CG30046 (GeneID 36334)	1	2.93e7	3.53e7		1.48e7	1.67e7
Obp49a (GeneID 36399)	1	4.28e7	3.49e7		2.01e7	1.44e7
CG11899 (GeneID 46391)	1	2.75e7	2.86e7		1.43e7	1.42e7
Unc-115b + p24-2	1	3.36e7	4.32e7		1.62e7	2.13e7
CG17754 (GeneID 31873)	1	3.50e7	3.82e7		1.56e7	1.67e7
